1 substance from paper PMC10942602 can be followed below.

Amino acid sequences for entries named in this document (tags omitted). A change or cut given only in a name is not applied to a line headed by its entry. Chains listed by the source or under a name are the forms on record and can include a tag or linker. Residues count along the entry.
GFP-C1ql2 (Q8CFR0, residues 22-287): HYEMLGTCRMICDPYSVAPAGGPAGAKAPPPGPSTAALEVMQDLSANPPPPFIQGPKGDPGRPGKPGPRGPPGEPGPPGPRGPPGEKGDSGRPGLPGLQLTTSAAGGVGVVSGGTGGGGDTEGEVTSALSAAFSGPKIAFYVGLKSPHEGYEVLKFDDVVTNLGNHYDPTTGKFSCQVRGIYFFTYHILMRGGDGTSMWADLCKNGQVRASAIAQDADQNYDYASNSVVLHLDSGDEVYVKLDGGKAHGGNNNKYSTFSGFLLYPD
GFP-C1ql2.K262E (Q8CFR0, form named): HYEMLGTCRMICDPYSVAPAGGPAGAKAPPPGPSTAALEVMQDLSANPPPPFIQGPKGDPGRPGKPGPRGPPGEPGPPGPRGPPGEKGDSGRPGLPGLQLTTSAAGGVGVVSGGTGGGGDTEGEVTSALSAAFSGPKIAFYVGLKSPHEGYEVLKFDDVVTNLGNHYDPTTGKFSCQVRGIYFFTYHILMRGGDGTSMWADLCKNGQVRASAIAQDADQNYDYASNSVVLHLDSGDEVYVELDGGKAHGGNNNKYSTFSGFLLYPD
UniProt P39087, residues 32-908: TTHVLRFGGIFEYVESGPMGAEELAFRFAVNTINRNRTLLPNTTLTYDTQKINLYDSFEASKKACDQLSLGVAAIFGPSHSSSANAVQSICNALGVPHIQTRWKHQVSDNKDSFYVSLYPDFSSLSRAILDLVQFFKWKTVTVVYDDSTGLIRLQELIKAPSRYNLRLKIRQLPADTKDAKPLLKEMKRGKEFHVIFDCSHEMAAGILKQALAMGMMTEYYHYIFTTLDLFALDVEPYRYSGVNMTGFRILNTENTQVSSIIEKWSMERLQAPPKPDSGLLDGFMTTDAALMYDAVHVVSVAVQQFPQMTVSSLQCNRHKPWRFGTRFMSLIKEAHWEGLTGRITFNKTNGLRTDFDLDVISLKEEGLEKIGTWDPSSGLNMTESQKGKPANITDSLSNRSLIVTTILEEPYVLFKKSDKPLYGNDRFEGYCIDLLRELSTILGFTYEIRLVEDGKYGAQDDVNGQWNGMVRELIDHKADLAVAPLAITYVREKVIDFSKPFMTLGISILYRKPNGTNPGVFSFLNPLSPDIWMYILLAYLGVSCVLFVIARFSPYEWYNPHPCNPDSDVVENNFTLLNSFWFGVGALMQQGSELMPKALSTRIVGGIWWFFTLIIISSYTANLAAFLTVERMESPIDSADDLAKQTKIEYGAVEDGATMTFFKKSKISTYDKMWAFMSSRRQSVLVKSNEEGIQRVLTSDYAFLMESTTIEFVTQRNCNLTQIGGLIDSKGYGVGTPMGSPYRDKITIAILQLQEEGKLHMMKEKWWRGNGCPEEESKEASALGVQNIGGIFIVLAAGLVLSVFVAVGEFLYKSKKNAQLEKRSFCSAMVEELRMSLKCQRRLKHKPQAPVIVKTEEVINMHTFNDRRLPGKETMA

One experiment addresses GFP-C1ql2.K262E (mouse) (UniProt Q8CFR0). Kind of experiment: co-IP; protein extract of HEK293 cells co-expressing GluK2-myc-flag and GFP-C1ql2 or GFP-C1ql2.K262E; Protein A magnetic beads with rabbit anti-C1ql2 (or anti-flag, or IgG control), overnight at 4 °C; lysis buffer 25 mM Tris pH 7.4, 150 mM NaCl, 2 mM MgCl2, 1% Igepal, 5% glycerol; blot with anti-flag M2.
A further experiment deals with GFP-C1ql2 (mouse) (UniProt Q8CFR0). Described as above.

Results are given in words; binding and its absence hold for the method and conditions named. Binding seen in cells or lysates may run through a third protein. Some binding calls cover weakened binding; strength is not graded here.

Regarding “GluK2-myc-flag (from UniProt P39087 32-908) (receptor)”, the binding result with GFP-C1ql2.K262E (mouse) and with GFP-C1ql2 (mouse) was “binds” in each case.
